Results on five molecules are retold here after publication PMC7747717.

These are yes or no findings as the source states them, for the method shown. For some assays here: In cells and extracts the contact can be indirect. Some results given as binding are weak or reduced against the parent protein; the word gives no strength. For some assays here: Tags and fused reporters may be left off the sequences shown.

Test [1] concerns the target T1, HA-tagged full-length RPC5 (human) (UniProt Q9NVU0).
T1 sequence: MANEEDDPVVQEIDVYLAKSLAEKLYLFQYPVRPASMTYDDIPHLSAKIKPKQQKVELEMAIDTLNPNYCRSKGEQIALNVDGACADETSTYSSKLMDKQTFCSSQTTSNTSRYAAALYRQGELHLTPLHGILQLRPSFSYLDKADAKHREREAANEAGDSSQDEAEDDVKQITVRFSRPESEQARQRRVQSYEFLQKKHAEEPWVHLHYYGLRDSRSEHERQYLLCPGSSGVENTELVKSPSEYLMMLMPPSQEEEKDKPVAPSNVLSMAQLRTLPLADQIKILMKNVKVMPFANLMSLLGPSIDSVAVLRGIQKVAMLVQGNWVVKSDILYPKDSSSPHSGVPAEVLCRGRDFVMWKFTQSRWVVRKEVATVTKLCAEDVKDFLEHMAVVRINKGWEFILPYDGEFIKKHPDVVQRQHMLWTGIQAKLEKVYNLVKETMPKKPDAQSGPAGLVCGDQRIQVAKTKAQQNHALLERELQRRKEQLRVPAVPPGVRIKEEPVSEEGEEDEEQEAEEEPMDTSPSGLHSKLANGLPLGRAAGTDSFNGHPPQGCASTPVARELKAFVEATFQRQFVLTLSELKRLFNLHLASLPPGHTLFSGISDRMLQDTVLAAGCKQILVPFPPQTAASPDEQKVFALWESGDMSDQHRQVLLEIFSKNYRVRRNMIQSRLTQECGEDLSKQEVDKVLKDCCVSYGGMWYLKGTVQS
As to the kind of experiment: co-IP; HEK293T cells with siRNA knock-down of endogenous RPC5, transfected with HA-tagged RPC5 constructs, RIPA lysate, anti-HA magnetic beads, western blot. Background: Immunoblotting shows a protein as a band on a membrane.

A further test has as its target RPC5 (556–708) (human) (UniProt Q9NVU0). As to the kind of experiment: SEC-SAXS; tWHD2 loaded at 3691 μM on a Bio SEC-3 HPLC column, 50 mM Tris-HCl pH 7.5, 150 mM NaCl, 10 mM β-mercaptoethanol; crystal models compared with the scattering by CRYSOL; both purified. In general terms: Size exclusion chromatography separates by hydrodynamic size, large species first.
Test [2] concerns the target SeMet-RPC5 (556–708) (human) (UniProt Q9NVU0). As to the kind of experiment: crystal structure; SeMet-RPC5 (556–708), 3.2–3.8 M ammonium acetate, 100 mM Bis-Tris propane pH 6.5–7, 4 °C, space group P2(1); both purified.

B1: RPC2, endogenous in HEK293T cells (protein, UniProt Q9NW08 1-1133)
chain: MDVLAEEFGNLTPEQLAAPIPTVEEKWRLLPAFLKVKGLVKQHIDSFNYFINVEIKKIMKANEKVTSDADPMWYLKYLNIYVGLPDVEESFNVTRPVSPHECRLRDMTYSAPITVDIEYTRGSQRIIRNALPIGRMPIMLRSSNCVLTGKTPAEFAKLNECPLDPGGYFIVKGVEKVILIQEQLSKNRIIVEADRKGAVGASVTSSTHEKKSRTNMAVKQGRFYLRHNTLSEDIPIVIIFKAMGVESDQEIVQMIGTEEHVMAAFGPSLEECQKAQIFTQMQALKYIGNKVRRQRMWGGGPKKTKIEEARELLASTILTHVPVKEFNFRAKCIYTAVMVRRVILAQGDNKVDDRDYYGNKRLELAGQLLSLLFEDLFKKFNSEMKKIADQVIPKQRAAQFDVVKHMRQDQITNGMVNAISTGNWSLKRFKMDRQGVTQVLSRLSYISALGMMTRISSQFEKTRKVSGPRSLQPSQWGMLCPSDTPEGEACGLVKNLALMTHITTDMEDGPIVKLASNLGVEDVNLLCGEELSYPNVFLVFLNGNILGVIRDHKKLVNTFRLMRRAGYINEFVSISTNLTDRCVYISSDGGRLCRPYIIVKKQKPAVTNKHMEELAQGYRNFEDFLHESLVEYLDVNEENDCNIALYEHTINKDTTHLEIEPFTLLGVCAGLIPYPHHNQSPRNTYQCAMGKQAMGTIGYNQRNRIDTLMYLLAYPQKPMVKTKTIELIEFEKLPAGQNATVAVMSYSGYDIEDALVLNKASLDRGFGRCLVYKNAKCTLKRYTNQTFDKVMGPMLDAATRKPIWRHEILDADGICSPGEKVENKQVLVNKSMPTVTQIPLEGSNVPQQPQYKDVPITYKGATDSYIEKVMISSNAEDAFLIKMLLRQTRRPEIGDKFSSRHGQKGVCGLIVPQEDMPFCDSGICPDIIMNPHGFPSRMTVGKLIELLAGKAGVLDGRFHYGTAFGGSKVKDVCEDLVRHGYNYLGKDYVTSGITGEPLEAYIYFGPVYYQKLKHMVLDKMHARARGPRAVLTRQPTEGRSRDGGLRLGEMERDCLIGYGASMLLLERLMISSDAFEVDVCGQCGLLGYSGWCHYCKSSCHVSSLRIPYACKLLFQELQSMNIIPRLKLSKYNE
In the case of B1, the binding entry in test [1] is on record as “binds”.

B2: RPC5 (556–708) (domain or fragment, UniProt Q9NVU0 556-708)
chain: TPVARELKAFVEATFQRQFVLTLSELKRLFNLHLASLPPGHTLFSGISDRMLQDTVLAAGCKQILVPFPPQTAASPDEQKVFALWESGDMSDQHRQVLLEIFSKNYRVRRNMIQSRLTQECGEDLSKQEVDKVLKDCCVSYGGMWYLKGTVQS
In the case of B2, the binding entry with RPC5 (556–708) (human) is given as “no binding (tested: 3691 μM)”.

B3: SeMet-RPC5 (556–708) (domain or fragment, UniProt Q9NVU0 556-708)
chain: TPVARELKAFVEATFQRQFVLTLSELKRLFNLHLASLPPGHTLFSGISDRMLQDTVLAAGCKQILVPFPPQTAASPDEQKVFALWESGDMSDQHRQVLLEIFSKNYRVRRNMIQSRLTQECGEDLSKQEVDKVLKDCCVSYGGMWYLKGTVQS
modifications: selenomethionine in place of methionine
B3: in test [2], the binding entry is on record as “no binding”.

B4: RPC1, endogenous in HEK293T cells (protein, UniProt O14802 1-1390)
chain: MVKEQFRETDVAKKISHICFGMKSPEEMRQQAHIQVVSKNLYSQDNQHAPLLYGVLDHRMGTSEKDRPCETCGKNLADCLGHYGYIDLELPCFHVGYFRAVIGILQMICKTCCHIMLSQEEKKQFLDYLKRPGLTYLQKRGLKKKISDKCRKKNICHHCGAFNGTVKKCGLLKIIHEKYKTNKKVVDPIVSNFLQSFETAIEHNKEVEPLLGRAQENLNPLVVLNLFKRIPAEDVPLLLMNPEAGKPSDLILTRLLVPPLCIRPSVVSDLKSGTNEDDLTMKLTEIIFLNDVIKKHRISGAKTQMIMEDWDFLQLQCALYINSELSGIPLNMAPKKWTRGFVQRLKGKQGRFRGNLSGKRVDFSGRTVISPDPNLRIDEVAVPVHVAKILTFPEKVNKANINFLRKLVQNGPEVHPGANFIQQRHTQMKRFLKYGNREKMAQELKYGDIVERHLIDGDVVLFNRQPSLHKLSIMAHLARVKPHRTFRFNECVCTPYNADFDGDEMNLHLPQTEEAKAEALVLMGTKANLVTPRNGEPLIAAIQDFLTGAYLLTLKDTFFDRAKACQIIASILVGKDEKIKVRLPPPTILKPVTLWTGKQIFSVILRPSDDNPVRANLRTKGKQYCGKGEDLCANDSYVTIQNSELMSGSMDKGTLGSGSKNNIFYILLRDWGQNEAADAMSRLARLAPVYLSNRGFSIGIGDVTPGQGLLKAKYELLNAGYKKCDEYIEALNTGKLQQQPGCTAEETLEALILKELSVIRDHAGSACLRELDKSNSPLTMALCGSKGSFINISQMIACVGQQAISGSRVPDGFENRSLPHFEKHSKLPAAKGFVANSFYSGLTPTEFFFHTMAGREGLVDTAVKTAETGYMQRRLVKSLEDLCSQYDLTVRSSTGDIIQFIYGGDGLDPAAMEGKDEPLEFKRVLDNIKAVFPCPSEPALSKNELILTTESIMKKSEFLCCQDSFLQEIKKFIKGVSEKIKKTRDKYGINDNGTTEPRVLYQLDRITPTQVEKFLETCRDKYMRAQMEPGSAVGALCAQSIGEPGTQMTLKTFHFAGVASMNITLGVPRIKEIINASKAISTPIITAQLDKDDDADYARLVKGRIEKTLLGEISEYIEEVFLPDDCFILVKLSLERIRLLRLEVNAETVRYSICTSKLRVKPGDVAVHGEAVVCVTPRENSKSSMYYVLQFLKEDLPKVVVQGIPEVSRAVIHIDEQSGKEKYKLLVEGDNLRAVMATHGVKGTRTTSNNTYEVEKTLGIEAARTTIINEIQYTMVNHGMSIDRRHVMLLSDLMTYKGEVLGITRFGLAKMKESVLMLASFEKTADHLFDAAYFGQKDSVCGVSECIIMGIPMNIGTGLFKLLHKADRDPNPPKRPLIFDTNEFHIPLVT
As to B4, the binding entry in test [1] was “binds”.

B5: RPC4, endogenous in HEK293T cells (protein, UniProt P05423 1-398)
chain: MSEGNAAGEPSTPGGPRPLLTGARGLIGRRPAPPLTPGRLPSIRSRDLTLGGVKKKTFTPNIISRKIKEEPKEEVTVKKEKRERDRDRQREGHGRGRGRPEVIQSHSIFEQGPAEMMKKKGNWDKTVDVSDMGPSHIINIKKEKRETDEETKQILRMLEKDDFLDDPGLRNDTRNMPVQLPLAHSGWLFKEENDEPDVKPWLAGPKEEDMEVDIPAVKVKEEPRDEEEEAKMKAPPKAARKTPGLPKDVSVAELLRELSLTKEEELLFLQLPDTLPGQPPTQDIKPIKTEVQGEDGQVVLIKQEKDREAKLAENACTLADLTEGQVGKLLIRKSGRVQLLLGKVTLDVTMGTACSFLQELVSVGLGDSRTGEMTVLGHVKHKLVCSPDFESLLDHKHR
Take B5: in test [1], the binding entry is on record as “binds”.
